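Wild-type GFP-tagged E. coli compared with a G2058-humanized RFP-tagged strain; fluorescence read after 24 hours of exposure.
The value is the change in activity at the top tested concentration; more negative means stronger inhibition.
Active means the normal-ribosome signal drops at least twice as much as the mutant signal without a large loss of growth; inconclusive means no clear call.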

Every entry below has the call inconclusive.
Only part of the assay is shown, chiefly results filed as inconclusive.

| structure | tested on / at | activity change |
|---|---|---|
| `O=C1CN(S(=O)(=O)c2ccc(Cl)cc2)c2ccccc2N1` | at 50 µM (top of the series) | -53.98 |
| `CCC[N+]1(CC#CC(O)(c2ccccc2)C2CCCCC2)CCCCC1` (stereo not drawn) | at 50 µM (top of the series) | -12.8 |
| `CCn1nc(Cc2cccc3ccccc23)c(C#N)c1N` | at 50 µM (top of the series) | -21.05 |
| `COCc1c(C#N)c(NCCc2ccc(F)cc2)nc(C)c1[N+](=O)[O-]` | at 50 µM (top of the series) | -11.18 |
| `CO[C@@H]1CN(C)C(=O)c2ccc(NC(=O)c3nc4ccccc4s3)cc2OC[C@@H](C)N(Cc2ccncc2)C[C@@H]1C` | at 50 µM (top of the series) | 7.67 |
| `CC1CCCCN1C(=O)C1CCCN(S(=O)(=O)c2cccc3nsnc23)C1` (stereo not drawn) | at 50 µM (top of the series) | -15.26 |
| `Cc1onc(-c2ccccc2Cl)c1C(=O)N[C@@H](C)c1ccccc1` | at 50 µM (top of the series) | -0.951 |
| `CCCc1nc2cc(C)c(Br)c(C)n2c1CC1CCCCC1` | at 50 µM (top of the series) | -25.58 |
| `Cc1cccc(OCc2nnc(SCC(=O)Nc3ncc(C)s3)o2)c1` | at 50 µM (top of the series) | 12.1 |
| `c1ccc(Cc2nc3ccccc3s2)cc1` | at 50 µM (top of the series) | -6.843 |
| `C=CCN(CC=C)CC(O)Cn1c2ccccc2c2ccccc21` (stereo not drawn) | at 50 µM (top of the series) | 6.299 |
| `Cc1ccc(C(=O)C2Oc3ccccc3C3CC(c4ccc(C)cc4)=NN23)cc1` (stereo not drawn) | at 50 µM (top of the series) | 17.26 |
| `CCOC(=O)CCSc1n[nH]c(=S)s1` | at 50 µM (top of the series) | 7.025 |
| `CCc1cccc(NC(=O)CN(C)S(=O)(=O)c2cccc3cccnc23)c1` | at 50 µM (top of the series) | -14.64 |
| `COc1ccc(CNC(=O)Cc2cn(C)c3ccccc23)c(OC)c1` | at 50 µM (top of the series) | -22.27 |
| `Cc1ccccc1-c1cc(C(=O)NCc2cccs2)n(CC2CC(c3cccnc3)=NO2)n1` (stereo not drawn) | at 50 µM (top of the series) | -23.11 |
| `C[C@@H]1CCCCO[C@@H](CN(C)C)[C@@H](C)CN([C@@H](C)CO)C(=O)c2cc(NC(=O)Nc3cccc4ccccc34)ccc2O1` | at 50 µM (top of the series) | 5.422 |
| `COc1ccc(-n2c(COc3cccc(C)c3)n[nH]c2=S)cc1` | at 50 µM (top of the series) | -7.59 |
| `O=C(CN1CCc2ccccc2C1)Nc1ccc(F)cc1F` | at 50 µM (top of the series) | -7.654 |
| `CCOc1ccccc1N1CCN(Cc2cn[nH]c2-c2ccc(F)cc2)CC1` | at 50 µM (top of the series) | -19.45 |
| `NCCCCc1ccc2ccc3cccc4ccc1c2c34` | at 50 µM (top of the series) | -98.58 |
| `Cc1noc(C)c1NC(=O)Nc1ccc2c(c1)C(=O)N([C@H](C)CO)C[C@H](C)[C@H](CN(C)C(=O)Nc1ccc3c(c1)OCO3)OCCCC[C@@H](C)O2` | at 50 µM (top of the series) | 13.51 |
| `CN(c1cccc(NC(=O)c2ccc(CN3CCc4ccccc4C3)cc2)c1)S(C)(=O)=O` | at 50 µM (top of the series) | -28.4 |
| `O=C(C[n+]1ccn(-c2ccccc2)c1)c1ccc([N+](=O)[O-])cc1` | at 50 µM (top of the series) | 17.51 |
| `COc1ccccc1-c1nnc(C2CCN(S(=O)(=O)c3cccc([N+](=O)[O-])c3)CC2)o1` | at 50 µM (top of the series) | -23.55 |
| `Nc1nc(Nc2ccccc2F)nc(NCc2ccco2)c1[N+](=O)[O-]` | at 50 µM (top of the series) | -65.77 |
| `COc1cccc(C(=O)N2C[C@@H]3[C@H](c4ccccc42)[C@H](CO)N3Cc2ccccc2Cl)c1` | at 50 µM (top of the series) | -5.035 |
| `Cc1ccc(C(=O)NCc2ccccc2)c(F)c1F` | at 50 µM (top of the series) | 7.442 |
| `CC(=O)c1ccc(Sc2ccccc2N)c([N+](=O)[O-])c1` | at 50 µM (top of the series) | -9 |
| `Cc1cc(C(=O)COC(=O)c2ccc(O)cc2)c(C)n1CC(F)(F)F` | at 50 µM (top of the series) | -37.74 |
| `Cc1ccc(-c2n[nH]c(S(C)(=O)=O)c2C#N)cc1` | at 50 µM (top of the series) | -16.18 |
| `Cn1cnc(CCNC(=O)C[C@H]2CC[C@@H]3[C@H](COC[C@H](O)CN3C(=O)Nc3ccc(Cl)cc3)O2)c1` | at 50 µM (top of the series) | -18.3 |
| `CN(C)CCCn1c(=O)n(Cc2ccco2)c(=O)c2c3c(sc21)CCCCC3` | at 50 µM (top of the series) | -17.71 |
| `COc1ccc(OC)c(CN2CCCC(C(=O)c3ccccc3SC)C2)c1` (stereo not drawn) | at 50 µM (top of the series) | -14.11 |
| `Nc1ccc2nc(-c3ccc(Cl)cc3)[nH]c2c1` | at 50 µM (top of the series) | 12.65 |
| `Cc1sc2ncnc(N3CCCC(C)C3)c2c1C` (stereo not drawn) | at 50 µM (top of the series) | -47.62 |
| `COc1ccc(-n2cc(-c3ccccc3)c3c(N4CCOCC4)ncnc32)cc1` | at 50 µM (top of the series) | -31.49 |
| `COc1cccc(S(=O)(=O)N2CCCCN3[C@H](CO)[C@@H](c4ccc(C#CC(C)C)cc4)[C@H]3C2)c1` | at 50 µM (top of the series) | -8.393 |
| `COc1cc(CO)cc(Br)c1OCC(=O)Nc1cccc2ccccc12` | at 50 µM (top of the series) | -32.99 |
| `O=C(c1cccs1)c1sccc1Cc1ccccc1` | at 50 µM (top of the series) | -45.22 |
| `O=C(O)CCN(Cc1ccccc1)S(=O)(=O)c1ccccc1Cl` | at 50 µM (top of the series) | -16.56 |
| `CCc1ccc(NC(=O)COC(=O)CCCC2=NS(=O)(=O)c3ccccc3N2)cc1` | at 50 µM (top of the series) | -19.21 |
| `COc1ccc2c(CC(=O)NCc3ccc4c(c3)OCO4)coc2c1` | at 50 µM (top of the series) | -2.286 |
| `CCCN1CCN(C(=O)c2ccc(Sc3ccc(C)cc3)c(NC(C)=O)c2)CC1` | at 50 µM (top of the series) | 4.385 |
| `O=C(Cc1ccc(Cl)cc1)c1ccc(O)cc1` | at 50 µM (top of the series) | -7.454 |
| `COc1cccc(-n2nnnc2SCC(=O)NCc2ccc3c(c2)OCO3)c1` | at 50 µM (top of the series) | -31.95 |
| `COc1cc2ccccc2cc1C(=O)NCC(c1cccs1)N(C)C` (stereo not drawn) | at 50 µM (top of the series) | 15.4 |
| `CN(C(=O)CN1C(=O)NC2(CCc3ccccc32)C1=O)C1CCCCC1` (stereo not drawn) | at 50 µM (top of the series) | -8.463 |
| `Cc1ccc(NC(=O)c2ccc(Br)o2)cc1S(=O)(=O)N(C)C` | at 50 µM (top of the series) | -9.409 |
| `Cc1c(Cc2ccccc2)sc(NC(=O)C(C)(C)C)c1C(N)=O` | at 50 µM (top of the series) | -52.72 |
| `Cc1nc(-c2ccc([N+](=O)[O-])cc2)c(-c2ccccc2)o1` | at 50 µM (top of the series) | -10.7 |

Some entries from above, unchanged:

| structure | tested on / at | activity change |
|---|---|---|
| `CCc1cccc(NC(=O)CN(C)S(=O)(=O)c2cccc3cccnc23)c1` | at 50 µM (top of the series) | -14.64 |
| `Cc1ccc(NC(=O)c2ccc(Br)o2)cc1S(=O)(=O)N(C)C` | at 50 µM (top of the series) | -9.409 |
| `Cc1cc(C(=O)COC(=O)c2ccc(O)cc2)c(C)n1CC(F)(F)F` | at 50 µM (top of the series) | -37.74 |

Source: PubChem BioAssay AID1035470 (Broad Institute, 2014).